Measurements as given in PubChem BioAssay AID588590 (National Center for Advancing Translational Sciences (NCATS), 2011).
Among all 390,000 compounds or so, about 4,000 (1%) were called active. Inconclusive results, whose numbers are uncertain, are shown with a selection of clear calls. The call rests on the fitted dose curve; in most records, active means well fitted inhibition curve with a large enough effect; inconclusive means small, poorly fitted or top-dose-only effect, or another doubt; inactive means no such curve, though single readings can be large or run the other way. Potencies of inconclusive entries are doubtful fits and often do not repeat.
Potency means the concentration at half of the fitted maximal effect.

Sequences of proteins named here, by UniProt entry; tags and fusion partners are left off. A change or cut given only in a name is not applied to a line headed by its entry.
UniProt Q9UNA4: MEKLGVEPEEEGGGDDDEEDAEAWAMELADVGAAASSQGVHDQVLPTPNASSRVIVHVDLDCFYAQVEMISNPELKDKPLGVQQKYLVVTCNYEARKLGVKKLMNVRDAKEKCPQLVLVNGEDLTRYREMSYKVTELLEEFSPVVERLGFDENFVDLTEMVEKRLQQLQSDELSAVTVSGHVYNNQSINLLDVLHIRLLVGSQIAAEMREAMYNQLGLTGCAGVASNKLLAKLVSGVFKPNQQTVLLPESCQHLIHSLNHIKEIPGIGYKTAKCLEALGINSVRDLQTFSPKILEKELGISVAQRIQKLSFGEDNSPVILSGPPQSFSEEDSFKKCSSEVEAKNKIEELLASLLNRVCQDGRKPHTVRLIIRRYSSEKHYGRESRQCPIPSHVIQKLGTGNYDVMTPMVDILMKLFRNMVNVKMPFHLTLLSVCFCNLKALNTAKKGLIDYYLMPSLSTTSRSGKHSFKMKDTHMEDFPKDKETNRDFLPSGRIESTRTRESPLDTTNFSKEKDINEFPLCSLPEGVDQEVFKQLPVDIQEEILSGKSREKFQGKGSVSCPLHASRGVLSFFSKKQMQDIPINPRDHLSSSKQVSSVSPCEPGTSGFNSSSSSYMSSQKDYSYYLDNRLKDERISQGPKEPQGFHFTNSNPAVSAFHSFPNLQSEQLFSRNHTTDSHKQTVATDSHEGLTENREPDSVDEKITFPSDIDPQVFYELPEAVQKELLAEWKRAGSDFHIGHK

Each compound was assayed against DNA polymerase iota (Homo sapiens) (UniProt Q9UNA4) (assay: qHTS for Inhibitors of Polymerase Iota). Details: Pol iota fluorescent replication assay, 10 min; series mostly up to 115 µM; activity, negative = inhibition: at the top concentration.
In short: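 Pol iota at 10 nM preincubated 15 min with compounds at room temperature; reaction started with fluorescent substrate, 50 nM final. Fluorescence read kinetically at 0 and 10 min; buffer-only wells as negative control.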
`O=C(NC1(C(F)(F)F)C(=O)Nc2c1c(=O)[nH]c(=O)n2-c1ccccc1)c1ccccc1Cl` (stereo not given) was tested, and the “activity, negative = inhibition” value was inactive: -10%. `O=C1C=CC(=O)N1CCNc1ncc(C(F)(F)F)cc1Cl` was tested, and the “activity, negative = inhibition” value was inactive: 27.8%. In the case of `COc1ccc(-c2csc(NC(=O)c3ccccc3NS(=O)(=O)c3ccc(C)cc3)n2)cc1`, the Potency is reported as active: 31.6 µM. In the case of `CCOCCCNc1nc2ccccc2n2c(CC)nnc12`, the Potency is reported as inconclusive: 5.62 µM [inhibitor, full curve, poor fit]. For `Cc1cc(=O)c2c(O)c(O)ccc2o1`, the Potency was inconclusive: 22.4 µM [inhibitor, full curve, poor fit]. `O=c1c2c3c(sc2n(CCN2CCCC2)c(=O)n1Cc1ccccc1)CCCCC3` was tested, and the Potency was inconclusive: 12.6 µM [inhibitor, partial curve, poor fit]. For `CCN(CC)S(=O)(=O)c1ccc(NC(=O)c2ccc(N3CCCC3=O)cc2)cc1`, the “activity, negative = inhibition” value was inactive: 85.6%. With `COc1ccc(-c2cc3ccccc3oc2=O)cc1NC(=O)c1ccc(Br)o1` the Potency was inconclusive: 28.2 µM [inhibitor, partial curve, poor fit]. In the case of `O=C(COC(=O)c1ccccc1NCCO)NNC(=O)c1cccs1`, the “activity, negative = inhibition” value is reported as inactive: 19.5%. `CCOC(=O)N1CCN(C(=O)CN(c2cccc(Cl)c2)S(=O)(=O)c2ccccc2)CC1` was tested, and the Potency was inconclusive: 100 µM [inhibitor, partial curve, poor fit]. For `O=S(=O)(c1ccccc1C(F)(F)F)N1CCN(c2nc(-c3cccs3)nc3ccccc23)CC1`, the Potency was inconclusive: 89.1 µM [inhibitor, partial curve, poor fit]. For `S=C(NCCc1ccccn1)Nc1ccccc1Cl`, the Potency was inconclusive: 20 µM [inhibitor, partial curve, poor fit]. With `CC(=O)c1c(C)[nH]c(C(=O)OCc2cc(=O)n3cc(Br)ccc3n2)c1C` the Potency was inconclusive: 79.4 µM [inhibitor, single point]. In the case of `COc1ccc(-c2ccoc2)cc1[C@H]1[C@H]2C=CC[C@@H](C)[C@@H]2C(=O)N1Cc1ccccc1`, the Potency is reported as inconclusive: 15.8 µM [inhibitor, full curve, poor fit]. For `CCOC(=O)N1CCc2c(sc3ncn(Cc4ccc(F)cc4)c(=O)c23)C1`, the Potency was inconclusive: 3.55 µM [inhibitor, partial curve, poor fit]. In the case of `Cc1cccc(C)c1CC(=O)N1CCOCC1`, the “activity, negative = inhibition” value is reported as inactive: 129%. With `CCCCC(=O)OCc1cc(=O)n2nc(C3CCCCC3)sc2n1` the “activity, negative = inhibition” value was inactive: 9.83%. With `O=C(O)CCC(=O)N1N=C(c2ccco2)CC1c1ccco1` (stereo not given) the Potency was active: 50.1 µM. For `COc1ccc(C(=O)N2CCN(c3nc(C4CC4)nc4sc(C)c(C)c34)CC2)cc1`, the Potency was inconclusive: 35.5 µM [inhibitor, partial curve, poor fit]. For `CC(=O)c1sc2nc(C)cc(C)c2c1N`, the “activity, negative = inhibition” value was inactive: 0.417%. For `COC(=O)c1ccccc1NC(=O)c1sc(N)nc1C`, the Potency was inconclusive: 79.4 µM [inhibitor, partial curve, poor fit]. With `Cc1cc(C)cc(OCC(=O)NC(Cc2c[nH]c3ccccc23)C(=O)O)c1` (stereo not given) the “activity, negative = inhibition” value was inactive: -8.28%. With `O=C1C(Cl)=C(Nc2ccc3cn[nH]c3c2)C(=O)c2ccccc21` the Potency was inconclusive: 12.6 µM [inhibitor, full curve, poor fit]. For `COc1ccc(NC(=O)CSc2ccc(-c3ccco3)nn2)c(OC)c1`, the Potency was inconclusive: 56.2 µM [inhibitor, partial curve, poor fit]. For `O=C(CCCN1C(=O)/C(=C/c2cccs2)SC1=S)NNC(=O)c1ccncc1`, the Potency was inconclusive: 25.1 µM [inhibitor, full curve, poor fit]. For `Cc1nnc(N/N=C/c2ccccc2F)n1N`, the Potency was inconclusive: 28.2 µM [inhibitor, single point]. For `Cc1ccc(N2CCN(C(=O)CCc3nc4ccccc4[nH]3)CC2)c(C)c1`, the Potency was inconclusive: 2.24 µM [inhibitor, partial curve, poor fit]. `O=C1/C(=C/c2ccc(O)cc2)SC(=S)N1CC1CCCO1` (stereo not given) was tested, and the Potency was inconclusive: 50.1 µM [inhibitor, partial curve, poor fit]. `CCOC(=O)c1cc2c(=O)n3cccc(C)c3nc2n(Cc2ccco2)c1=NC(=O)c1cccnc1` was tested, and the Potency was inconclusive: 28.2 µM [inhibitor, single point]. In the case of `COc1ccc(-c2c(C3C4C=CCC(C)C4C(=O)N3Cc3ccccc3)ccc3ccccc23)cc1` (stereo not given), the “activity, negative = inhibition” value is reported as inactive: 12.5%. `Cc1sc2ccccc2[n+]1CCc1ccccc1` was tested, and the Potency was inconclusive: 12.6 µM [inhibitor, partial curve]. `Cc1ccc(Cl)cc1NC(=O)N1CCC(CN2CCCCCC2)CC1` was tested, and the “activity, negative = inhibition” value was inactive: 6.78%. For `O=C(Nc1nnc(C2=COCCO2)o1)c1ccc(S(=O)(=O)N2CCOCC2)cc1`, the Potency was inconclusive: 56.2 µM [inhibitor, partial curve, poor fit]. `O=C(Nc1ccccc1)Nc1nc2ccccc2s1` was tested, and the Potency was inconclusive: 70.8 µM [inhibitor, single point]. `NS(=O)(=O)c1ccc(NC(=O)CCc2ccccc2)cc1` was tested, and the Potency was inconclusive: 17.8 µM [inhibitor, full curve]. For `O=C(c1ccco1)N1CCN(S(=O)(=O)c2ccc(Cl)s2)CC1`, the Potency was inconclusive: 79.4 µM [inhibitor, single point]. In the case of `CCOc1ccc(OCC)c(NC(=O)Cn2c(C)nc3ccccc3c2=O)c1`, the Potency is reported as inconclusive: 89.1 µM [inhibitor, single point]. `O=C(Oc1cc(=O)oc2c1c(=O)n1c3c(cccc23)CC1)c1ccccc1` was tested, and the Potency was inconclusive: 15.8 µM [inhibitor, partial curve, poor fit]. In the case of `COc1ccccc1CC(=O)Nc1ccc([N+](=O)[O-])cc1O`, the Potency is reported as inconclusive: 100 µM [inhibitor, partial curve, poor fit]. With `C=CCn1c(C)cc(C(=O)COC(=O)COc2ccccc2C#N)c1C` the Potency was inconclusive: 8.91 µM [inhibitor, single point]. With `Cc1ccc2c(c1)N(S(=O)(=O)c1cc(-c3onc(C)c3C)ccc1C)CCO2` the Potency was inconclusive: 79.4 µM [inhibitor, partial curve, poor fit]. `c1ccc2c(N=NN3CCCCC3)ccnc2c1` was tested, and the “activity, negative = inhibition” value was inactive: 26.7%. With `CCOc1ccc(Cn2nnc(C(=O)NCCc3ccccc3)c2N)cc1` the “activity, negative = inhibition” value was inactive: -5.39%. In the case of `COc1cc2c(cc1OC)CN(C(=O)/C=C/c1cccc([N+](=O)[O-])c1)CC2`, the “activity, negative = inhibition” value is reported as inactive: 59.6%. With `Cc1ccc([N+](=O)[O-])cc1Nc1nc(N2CCOCC2)nc(N2CCOCC2)n1` the Potency was inconclusive: 89.1 µM [inhibitor, partial curve, poor fit]. With `O=C(O)Cc1sc(Nc2ccccc2)nc1-c1ccccc1` the Potency was inconclusive: 89.1 µM [inhibitor, single point]. For `Oc1csc(Cc2nc(-c3ccc4ccccc4c3)cs2)n1`, the Potency was inconclusive: 28.2 µM [inhibitor, partial curve, poor fit]. With `Cc1ccc(-c2cc(-c3nnc(SCC(=O)N(C)CCC#N)n3N)c3ccccc3n2)cc1` the Potency was inconclusive: 39.8 µM [inhibitor, single point]. In the case of `Cc1ccc(S(=O)(=O)N2CCN(C(=O)c3ccc(OCc4c(C)noc4C)cc3)CC2)cc1`, the Potency is reported as inconclusive: 11.2 µM [inhibitor, partial curve, poor fit]. In the case of `CN1C(=O)C(C)(C)c2cc(S(=O)(=O)N3CCCC(C(=O)NCc4ccccc4Cl)C3)ccc21` (stereo not given), the Potency is reported as inconclusive: 39.8 µM [inhibitor, single point]. With `O=C(O)Cc1ccc(NC2(c3ccccc3)C(=O)c3ccccc3C2=O)cc1` the “activity, negative = inhibition” value was inactive: -0.0068%. For `COc1ccccc1S(=O)Cc1ccc(C(=O)O)o1` (stereo not given), the Potency was inconclusive: 44.7 µM [inhibitor, partial curve, poor fit]. For `COC(=O)c1ccc(CSc2ccccc2C)o1`, the Potency was inconclusive: 31.6 µM [inhibitor, single point]. In the case of `CCn1cc(C(=O)N2CCN(c3cc(C)ccc3C)CC2)c(=O)c2cc(S(=O)(=O)N3CCCCC3)ccc21`, the Potency is reported as inconclusive: 79.4 µM [inhibitor, partial curve]. With `Cc1nc(SC(C)C(=O)Nc2ccccc2Cl)cc(-c2ccccc2)n1` (stereo not given) the “activity, negative = inhibition” value was inactive: 21.1%. In the case of `CCOc1ccccc1CNC(=O)Cn1cc2c(n1)-c1c(oc(C(=O)N3CCCC3)c1C)CC2`, the Potency is reported as inconclusive: 31.6 µM [inhibitor, single point]. `O=C(CNC(=O)c1ccc(Br)cc1)N=Nc1c(O)[nH]c2ccc([N+](=O)[O-])cc12` was tested, and the Potency was inconclusive: 39.8 µM [inhibitor, single point]. With `COc1ccc(/C=N/NC(=O)c2cnccn2)c(OC)c1OC` the Potency was inconclusive: 89.1 µM [inhibitor, partial curve, poor fit]. In the case of `c1ccc(C[C@H]2CN=C(Nc3ccccc3)N2CCC2CCCC2)cc1`, the Potency is reported as inconclusive: 39.8 µM [inhibitor, partial curve, poor fit]. In the case of `Cc1ccc2nc(-c3ccc(Cl)c(NC(=O)COc4ccc(C(C)C)cc4)c3)oc2c1`, the Potency is reported as inconclusive: 3.98 µM [inhibitor, partial curve, poor fit]. `CS(=O)(=O)c1ccc(NS(=O)(=O)c2ccc(Cl)c(C(=O)NCc3ccco3)c2)cc1` was tested, and the Potency was inconclusive: 14.1 µM [inhibitor, partial curve]. `COc1ccc(-c2cc(C(=O)N3CCN(c4ccccc4O)CC3)c3ccccc3n2)cc1` was tested, and the “activity, negative = inhibition” value was inactive: 14.7%. `CCCCc1ccc(S(=O)(=O)N/N=C(/C)c2ccncc2)cc1` was tested, and the Potency was inconclusive: 15.8 µM [inhibitor, partial curve, poor fit]. For `COc1ccc(-c2cc(-c3ccc4c(c3)NC(=O)CO4)nc3c2COc2ccc(F)cc2-3)cc1`, the “activity, negative = inhibition” value was inactive: 0.186%. `CCOc1ccc(N2C(=O)c3n[nH]c(-c4cccs4)c3C2c2cccc(F)c2)cc1` (stereo not given) was tested, and the Potency was active: 12.6 µM.
